# Data: publication PMC9907809, “Conformational rearrangements in the sensory RcsF/OMP complex mediate signal transduction across the bacterial cell envelope” (PLOS Genetics, 2023)
# Where a chain is given by its changes, count along the chain named. In names and notes the source's numbering stands. Results are given in words; binding and its absence hold for the method and conditions named. In cells and extracts the contact can be indirect. Some entries that bind do so weakly or less than the wild type.
# T1: OmpA (not stated (endogenous in the host strain, background MC4100)) (UniProt P0A910)
# T1 sequence: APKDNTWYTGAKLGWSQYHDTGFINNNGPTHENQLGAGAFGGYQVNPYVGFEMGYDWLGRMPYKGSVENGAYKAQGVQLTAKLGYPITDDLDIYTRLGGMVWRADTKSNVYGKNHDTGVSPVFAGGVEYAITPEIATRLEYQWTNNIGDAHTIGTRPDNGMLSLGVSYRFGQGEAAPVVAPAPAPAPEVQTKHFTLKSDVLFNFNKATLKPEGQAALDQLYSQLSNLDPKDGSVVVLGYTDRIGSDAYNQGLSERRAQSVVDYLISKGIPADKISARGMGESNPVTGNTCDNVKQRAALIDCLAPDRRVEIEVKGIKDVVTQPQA
# T2: RcsF(A55V)-Strep (UniProt P69411)
# T2 sequence (chain, lipidated N-terminal cysteine (residue 16)): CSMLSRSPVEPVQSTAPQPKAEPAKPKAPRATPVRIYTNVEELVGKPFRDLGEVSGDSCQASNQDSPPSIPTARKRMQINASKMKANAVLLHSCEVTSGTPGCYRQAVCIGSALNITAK
# T3: RcsF(P62A)-Strep (UniProt P69411)
# T3 sequence (chain, lipidated N-terminal cysteine (residue 16)): T2 sequence (chain, lipidated N-terminal cysteine (residue 16)) with V40A, P47A
# T4: RcsF(R64E)-Strep (UniProt P69411)
# T4 sequence (chain, lipidated N-terminal cysteine (residue 16)): T2 sequence (chain, lipidated N-terminal cysteine (residue 16)) with V40A, R49E
# T5: RcsF(T53F)-Strep (UniProt P69411)
# T5 sequence (chain, lipidated N-terminal cysteine (residue 16)): T2 sequence (chain, lipidated N-terminal cysteine (residue 16)) with T38F, V40A
# T6: RcsF-Strep, wild type (UniProt P69411)
# T6 sequence (chain, lipidated N-terminal cysteine (residue 16)): T2 sequence (chain, lipidated N-terminal cysteine (residue 16)) with V40A
# B1: RcsF, OM version, wild type (protein, UniProt P69411 16-134)
# chain: T2 sequence (chain, lipidated N-terminal cysteine (residue 16)) with V40A
# modifications: lipidated N-terminal cysteine (residue 16)
# B2: RcsF(T132I), OM version (protein, UniProt P69411 16-134)
# chain: T2 sequence (chain, lipidated N-terminal cysteine (residue 16)) with V40A, T117I
# modifications: lipidated N-terminal cysteine (residue 16)
# B3: RcsF(P62A), OM version (protein, UniProt P69411 16-134)
# chain: T2 sequence (chain, lipidated N-terminal cysteine (residue 16)) with V40A, P47A
# modifications: lipidated N-terminal cysteine (residue 16)
# B4: RcsF(R64E), OM version (protein, UniProt P69411 16-134)
# chain: T2 sequence (chain, lipidated N-terminal cysteine (residue 16)) with V40A, R49E
# modifications: lipidated N-terminal cysteine (residue 16)
# B5: OmpA (protein, UniProt P0A910 22-346)
# chain: T1 sequence
# B6: OmpC (protein, UniProt P06996 22-367)
# chain: AEVYNKDGNKLDLYGKVDGLHYFSDNKDVDGDQTYMRLGFKGETQVTDQLTGYGQWEYQIQGNSAENENNSWTRVAFAGLKFQDVGSFDYGRNYGVVYDVTSWTDVLPEFGGDTYGSDNFMQQRGNGFATYRNTDFFGLVDGLNFAVQYQGKNGNPSGEGFTSGVTNNGRDALRQNGDGVGGSITYDYEGFGIGGAISSSKRTDAQNTAAYIGNGDRAETYTGGLKYDANNIYLAAQYTQTYNATRVGSLGWANKAQNFEAVAQYQFDFGLRPSLAYLQSKGKNLGRGYDDEDILKYVDVGATYYFNKNMSTYVDYKINLLDDNQFTRDAGINTDNIVALGLVYQF
# B7: OmpF (protein, UniProt P02931 23-362)
# chain: AEIYNKDGNKVDLYGKAVGLHYFSKGNGENSYGGNGDMTYARLGFKGETQINSDLTGYGQWEYNFQGNNSEGADAQTGNKTRLAFAGLKYADVGSFDYGRNYGVVYDALGYTDMLPEFGGDTAYSDDFFVGRVGGVATYRNSNFFGLVDGLNFAVQYLGKNERDTARRSNGDGVGGSISYEYEGFGIVGAYGAADRTNLQEAQPLGNGKKAEQWATGLKYDANNIYLAANYGETRNATPITNKFTNTSGFANKTQDVLLVAQYQFDFGLRPSIAYTKSKAKDVEGIGDVDLVNYFEVGATYYFNKNMSTYVDYIINQIDSDNKLGVGSDDTVAVGIVYQF
# Legend:
# [1] = molecular target: T1, OmpA (not stated (endogenous in the host strain, background MC4100)); assay: cross-linking; in vivo formaldehyde crosslinking; OM version of RcsF variants with endogenous OmpA (and BamA); immunoblot of whole cell lysates probed with α-RcsF, RcsF/OmpA band quantified relative to the WT
# [2] = molecular target: T2, RcsF(A55V)-Strep; assay: pull-down; in vivo pull-down without crosslinking; membrane fractions solubilized in 1% DDM, RcsF-Strep held on Streptactin Sepharose, washed with 25 mM Tris-HCl pH 8.0, 150 mM NaCl, 0.02% DDM, eluted with desthiobiotin; immunoblots probed with α-OmpA and α-OmpC/F
# [3] = molecular target: T3, RcsF(P62A)-Strep; assay: as above
# [4] = molecular target: T4, RcsF(R64E)-Strep; assay: as above
# [5] = molecular target: T5, RcsF(T53F)-Strep; assay: as above
# [6] = molecular target: T6, RcsF-Strep, wild type; assay: as above
binder,measurement,setting,value
B1,binding,[1],binds
B2,binding,[1],binds
B3,binding,[1],binds
B4,binding,[1],binds
B5,binding,[2],binds
same,binding,[3],binds
same,binding,[4],binds
same,binding,[5],binds
same,binding,[6],binds
B6,binding,[3],binds
same,binding,[4],binds
same,binding,[5],binds
same,binding,[6],binds
B7,binding,[3],binds
same,binding,[4],binds
same,binding,[5],binds
same,binding,[6],binds
